Results as given in PubChem BioAssay AID2551 (National Center for Advancing Translational Sciences (NCATS), 2010).
The whole screen tested about 310,000 compounds, of which about 17,000 (5.5%) were called active. The shares of active, inactive and inconclusive entries below differ from those in the screen. Calls follow the shape of the dose curve; as a rule, active = well fitted inhibition curve with a large enough effect; inconclusive = small, poorly fitted or top-dose-only effect, or effect the other way; inactive = no such curve, though single readings can be large or run the other way. Where the call is inconclusive, the potency comes from a doubtful curve fit.

By UniProt entry, the sequences of proteins in these tests, tags left out. Where a name states a change or a piece, a line headed by the entry shows the natural chain unless it says otherwise.
UniProt P51450: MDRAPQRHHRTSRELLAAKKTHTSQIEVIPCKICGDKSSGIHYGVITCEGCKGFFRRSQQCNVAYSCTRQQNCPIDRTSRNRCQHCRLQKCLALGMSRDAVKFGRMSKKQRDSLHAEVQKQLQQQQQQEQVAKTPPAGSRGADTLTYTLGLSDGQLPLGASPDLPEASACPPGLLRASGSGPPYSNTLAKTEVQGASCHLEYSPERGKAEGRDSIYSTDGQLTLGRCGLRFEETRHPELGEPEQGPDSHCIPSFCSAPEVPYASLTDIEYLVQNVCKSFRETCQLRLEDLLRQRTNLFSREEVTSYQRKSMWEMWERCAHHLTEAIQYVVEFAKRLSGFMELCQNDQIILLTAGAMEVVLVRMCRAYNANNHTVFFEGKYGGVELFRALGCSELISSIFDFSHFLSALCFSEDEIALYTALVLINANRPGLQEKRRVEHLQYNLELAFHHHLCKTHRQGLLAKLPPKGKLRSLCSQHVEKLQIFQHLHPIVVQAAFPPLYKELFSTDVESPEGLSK

Biological target: Nuclear receptor ROR-gamma (Mus musculus) (UniProt P51450)
Assay: qHTS for inhibitors of ROR gamma transcriptional activity; also: nearly all actives have a fitted effect of over 60% in size
Conditions: Drosophila S2 Gal4-RORgamma UAS-luciferase reporter, 20 h; activity change, negative = inhibition: at 53.6 µM (top of the series)
Outline: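 Read-out: Photinus luciferase luminescence; inhibitors lower reporter signal. Insect Schneider cells with Gal4-ROR gamma fusion under metallothionein promoter, UAS reporter; 700 uM final copper sulfate induction, 20 hr, ambient temperature.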
% is scaled to controls: 0 for no effect and ±100 for the full control effect; potency is read from the fitted curve at half-maximal effect.

Potency, active:
Cc1ccc(Cn2c(C3CCCN3c3nc(C)cs3)nc3cc(C(F)(F)F)ccc32)cc1 (stereo not drawn) 3.55 µM
CC1CC(C)(C)NC(=S)N1CCC(=O)N1c2ccccc2CC1C (stereo not drawn) 3.98 µM
C(=N\Nc1ccc2ccccc2n1)/c1ccc2c(c1)OCCO2 2.51 µM
Cc1ccc(NC(=S)NNC(=O)Cn2nc(C(F)F)cc2C(F)F)cc1 2.24 µM
COc1ccc(NC(=S)NCCc2ccccc2)c(C)c1 6.31 µM
C=CCn1c(C)cc(C2=NNC(=NC(C)(C)C)SC2)c1C 11.2 µM
C=CCn1c(OCc2ccccc2)n[nH]c1=S 3.98 µM
O=C(Cc1cccs1)NNC(=S)NC(=O)c1ccc(F)c(F)c1 6.31 µM
c1nc2n(n1)C1=C(CCCC1)C1(CCCCC1)N2 2.51 µM
C/C(=N\NC(=S)NCCc1ccccc1)c1ccc(Cl)cc1 3.55 µM

Potency, inconclusive:
COc1ccc(-c2nc(CSCC(=O)NCCC3=CCCCC3)c(C)o2)cc1OC 35.5 µM [activator, single point]
COc1ccc(NC(=O)Nc2sc(=S)n(C)c2C)cc1 10 µM [inhibitor, partial curve]
Cc1cccc(C)c1NC(=O)COC(=O)CCc1ccc(S(=O)(=O)N2CCCCC2)cc1 6.31 µM [inhibitor, single point]
Cc1ccccc1NC(=O)c1ccc(NS(=O)(=O)c2cc(C(C)(C)C)cc(C)c2C)cc1 22.4 µM [activator, single point]
C/C(=N\NC(=O)OC(C)(C)C)c1ccc[nH]1 0.447 µM [activator, partial curve, poor fit]
Cc1cc(C)c(S(=O)(=O)NCc2ccccn2)cc1C 31.6 µM [inhibitor, single point]
O=C(NN1C(=O)c2cc(Br)ccc2NC1c1ccccc1Cl)c1ccncc1 (stereo not drawn) 35.5 µM [activator, single point]
COc1ccc(C(C)=O)cc1COC(=O)c1ccc(OCc2c(C)noc2C)cc1 35.5 µM [inhibitor, single point]
COc1ccc(S(=O)(=O)Cc2ccccc2)cc1N 7.08 µM [activator, partial curve]
O=C(O)c1ccccc1NC(=O)c1cc(-c2ccccc2)nc2ccccc12 12.6 µM [activator, single point]
CC(C)c1nccn1S(=O)(=O)c1cc([N+](=O)[O-])ccc1Cl 12.6 µM [inhibitor, partial curve]
Cc1nc2cc(C(F)(F)F)ccc2n1CCNc1nc(-c2ccc(F)cc2)cs1 14.1 µM [inhibitor, single point]
Cc1nn(-c2ccccc2)c(Cl)c1/C=N/NC(=O)c1[nH]ncc1Br 11.2 µM [inhibitor, single point]
Fc1ccc(NCc2nnc3n2CCCCC3)cc1 0.447 µM [inhibitor, single point]
O=C(NCCC1=CCCCC1)C(=O)c1c[nH]c2ccccc12 14.1 µM [activator, partial curve]
C=CCOC(=O)C1=C(C)NC(SCC(=O)Nc2nccs2)=C(C#N)C1c1cccs1 (stereo not drawn) 31.6 µM [inhibitor, single point]
Clc1ccc2oc(-c3ccccc3)nc2c1 0.794 µM [activator, full curve, poor fit]
N#CC1=C(N)NC(=S)C(C(N)=O)C1c1ccccc1F (stereo not drawn) 1.41 µM [activator, partial curve]
O=[N+]([O-])c1cccc(S(=O)(=O)NCc2ccccn2)c1 25.1 µM [inhibitor, single point]
Cc1cc(=O)[nH]c(N/N=C/c2ccc(Cl)c([N+](=O)[O-])c2)n1 12.6 µM [activator, partial curve]
CCOC(=O)/C=C/C(=O)OCC(=O)NCc1ccccc1 7.94 µM [inhibitor, partial curve]
CCOC(=O)c1nc(Nc2ccc(N3CCC(C)CC3)cc2)c2ccccc2n1 17.8 µM [activator, partial curve]
Oc1ccccc1Nc1nc(NCC2CCCO2)c2ccccc2n1 (stereo not drawn) 10 µM [activator, partial curve]
Cc1ccc(C(NC(=O)NCCCN2CCOCC2)=C(Cl)Cl)cc1F 5.62 µM [inhibitor, single point]
Nc1ccc2ncccc2c1N 11.2 µM [inhibitor, partial curve]
Cc1ccc(NC(=O)CNc2ccc(Cl)c(Cl)c2)cc1S(=O)(=O)N(C)C 35.5 µM [activator, single point]

Activity change, negative = inhibition, inactive:
CC(=O)c1c(N2CCN(C)CC2)nc(=S)n(Cc2ccccc2)c1C -1.44%
Cc1cccc(NC(=O)CSc2nnc(-c3ccccc3)n2N)c1 0.948%
COc1ccccc1C(CNc1ccc(S(=O)(=O)N2CCCC2)cc1[N+](=O)[O-])N(C)C (stereo not drawn) 3.69%
COc1ccc(NC(=O)CSc2nncs2)cc1S(N)(=O)=O 15.2%
CCSCCOC(=O)C1=C(C)NC2=C(C(=O)CCC2)C1c1coc2ccccc2c1=O (stereo not drawn) 23.9%
COc1ccc(CC2(CO)CCN(Cc3cnc(-c4ccccc4C)nc3)CC2)cc1 38.5%
COC(=O)c1sc2ccccc2c1C(=O)OC -5.21%
O=C(c1ccc(C(F)(F)F)cc1)C1CCCN(Cc2cccn2-c2ncccn2)C1 (stereo not drawn) -9.6%
CCOCN(C(=O)Cn1cnc2ccccc21)c1c(C)cccc1CC -26.8%
CCOC(=O)C1=C(C)N(C)C(=O)NC1c1cc2c(cc1[N+](=O)[O-])OCO2 (stereo not drawn) -10.1%
Cc1nc(-c2ccc(Cl)cc2)oc1COC(C)(C)C(=O)O 3.06%
C(=N\Nc1nc(N2CCCCC2)nc(N2CCCCC2)n1)/c1c[nH]c2ccccc12 2.33%
